Results: the supplement of paper PMC6445147
This is a noisy data set.

B1: human tRNA-Pro; a variant is named by its letters at N, in order (parent)
chain: GGCTCGTTGGTCTAGNGGTATGATTCTCGCTTAGGGTGCGAGAGGTCCCGGGTTCNNATCCCGGACGAGCCC

Columns and labels:
[1] = variants of: B1; assay: tRNA Pol-III promoter activity, log2 (circRNA frequency / plasmid DNA frequency) (log2 ratio); higher = stronger promoter activity; conditions: HEK293T; construct: no Pol-II promoter ((-)CMV library)
[2] = variants of: B1; assay: tRNA 3' processing efficiency (processed reads / all reads, maximum-likelihood estimate) (fraction); higher = more efficient 3' processing; conditions: HEK293T; construct: no Pol-II promoter ((-)CMV library)
[3] = variants of: B1; assay: tRNA 5' processing efficiency (processed reads / all reads, maximum-likelihood estimate) (fraction); higher = more efficient 5' processing; conditions: HEK293T; construct: CMV Pol-II promoter ((+)CMV library, decapped)

Row | Variant | tRNA Pol-III promoter activity (log2) [1] | tRNA 3' processing efficiency [2] | tRNA 5' processing efficiency [3]
1 | GAA T19G A20C | 2.38 | 0.5 | 
2 | CAC T19A | 2.81 | 0.5 | 
3 | GAA A20C T59C | 2.1 | 0.22 | 
4 | TAG G17T A58T | 4.16 | 0.29 | 
5 | GTA A14C A20T | 3.12 | 0.25 | 
6 | GTA G17C A58G | 5.02 | 0.17 | 
7 | GAA A14G G17T A58G | 5.41 | 0.62 | 
8 | GAA G17C A20G T53A | 6.1 | 0.67 | 
9 | GAA T8G G15C T53G | 3.36 | 0.4 | 
10 | GGG A14C | 5.68 | 0.25 | 
11 | TTA T54A | 3.51 | 0.17 | 
12 | GGA T19C T54A | 6.74 | 0.14 | 
13 | GTA A58G T59G | 4.58 | 0.42 | 
14 | TTA A14G G17T A58C | 8.11 | 0.22 | 
15 | TTC T19C | 5.62 | 0.17 | 
16 | GGA T54C | 0.227 | 0.17 | 
17 | CGT C55G T59G | 7.45 | 0.22 | 
18 | GAG A14T | 2.04 | 0.29 | 
19 | AAA A14C | 0.672 | 0.29 | 
20 | AAA G15A T54A | 2.77 | 0.2 | 
21 | GTA T8G G15A A20T A58C | 3.62 | 0.25 | 
22 | TTA G15A | 4.51 | 0.47 | 
23 | GTA T8C T19G C55G | 3.21 | 0.33 | 

Another view of part of the listing above:
Row,Variant,tRNA Pol-III promoter activity (log2) [1],tRNA 3' processing efficiency [2],tRNA 5' processing efficiency [3]
10,GGG A14C,5.68,0.25,
17,CGT C55G T59G,7.45,0.22,
18,GAG A14T,2.04,0.29,

Carrying on:

Row | Variant | tRNA Pol-III promoter activity (log2) [1] | tRNA 3' processing efficiency [2] | tRNA 5' processing efficiency [3]
24 | ATC | 6.61 | 0.33 | 
25 | GTA G15A T59G | 4.14 | 0.23 | 
26 | GTA G9A A58T | 4.68 | 0.15 | 
27 | GAA G9T T19A | 0.176 | 0.4 | 
28 | CTA A14G | 2.98 | 0.42 | 
29 | GAG A14G G18C | 3.45 | 0.5 | 
30 | AAT G18T | 2.36 | 0.43 | 
31 | GAG G9A G15A | 0.928 | 0.67 | 
32 | GGA T19C T53G | 4.36 | 0.4 | 
33 | GGG T8G | 3.51 | 0.42 | 
34 | GGG T59C | 3.8 | 0.36 | 
35 | CAA A14G G15T G17T T59G | 8.2 | 0.19 | 
36 | GTA A14C | 1.52 | 0.31 | 0.25
37 | GGA A58G T59A | 4.2 | 0.25 | 
38 | GAG G17A T19C | 4.98 | 0.33 | 
39 | GAA A14T A20T T59C | 4.44 | 0.33 | 
40 | TAA T54A A58C | 4.03 | 0.25 | 
41 | GCA G18T T59A | 3.55 | 0.2 | 
42 | GAT A14G T59C | 3.52 | 0.29 | 
43 | GGA A20G A58T T59G | 7.43 | 0.38 | 
44 | GAT T8G G17A A58C | 5.26 | 0.29 | 
45 | GAC G15A A58G | 4.46 | 0.31 | 0.33
46 | GGA A14T C55T | 3.55 | 0.3 | 

Row | Variant | tRNA Pol-III promoter activity (log2) [1] | tRNA 3' processing efficiency [2] | tRNA 5' processing efficiency [3]
47 | CAA T19A T53G | 2.86 | 0.25 | 
48 | GGA G18A T53A | 5.52 | 0.14 | 
49 | GAA G17C G18C T53A | 4.77 | 0.3 | 
50 | ATA T59G | 3.28 | 0.21 | 
51 | TAA T54G | 1.71 | 0.56 | 
52 | GCA A20G A58T | 5.75 | 0.29 | 
53 | GAA A14C G18C A58G | 3.93 | 0.73 | 
54 | TAA A14G T59C | 6.49 | 0.64 | 
55 | GTG A58T | 1.79 | 0.25 | 
56 | CAA A20G C55T | 5.56 | 0.04 | 
57 | TAA T8C | 3.4 | 0.69 | 0.14
58 | GTT A58G T59C | 7.1 | 0.89 | 
59 | GAA T19A A58G T59G | 2.57 | 0.25 | 
60 | GAG C55G | 1.57 | 0.78 | 0.33
61 | TGA T54A A58T | 5.84 | 0.57 | 
62 | GTT G17C | 6.36 | 0.04 | 
63 | GCA A14G T59G | 4.49 | 0.68 | 0.25
64 | GGA A20C T54A | 4.03 | 0.5 | 
65 | CAA T8A | 0.0214 | 0.4 | 0.33
66 | GAA A14G G17T A58T | 2.36 | 0.4 | 
67 | GAA T8C G9A | 0.948 | 0.89 | 
68 | GAT A58G | 2.04 | 0.33 | 
69 | GAA T8G A20T T59G | 3.53 | 0.5 | 

Row | Variant | tRNA Pol-III promoter activity (log2) [1] | tRNA 3' processing efficiency [2] | tRNA 5' processing efficiency [3]
70 | GAA T54A | 0.713 | 0.36 | 0.29
71 | GAA A14C T19A | 2.25 | 0.17 | 
72 | GGT T59C | 3.78 | 0.27 | 
73 | GTC G15T G17T | 5.34 | 0.62 | 
74 | GAG G17C G18T A58G | 5.53 | 0.17 | 
75 | GAA G9C A14T A58C | 1.77 | 0.5 | 
76 | GTA A14T G18C T59C | 6.51 | 0.33 | 
77 | GAG T8G A20T | 4.3 | 0.22 | 
78 | TGA G17C T54A | 5.26 | 0.4 | 
79 | GTT G9A | 2.22 | 0.25 | 
80 | CAA T19G T59G | 5.56 | 0.41 | 
81 | GAG T54C | 0.138 | 0.5 | 0.2
82 | GTA A14C G15T | 3.94 | 0.4 | 
83 | AAA T19A T54A | 5.16 | 0.29 | 
84 | TCA T59C | 2.42 | 0.25 | 
85 | GAG G18A T19C | 2.79 | 0.4 | 
86 | CAA G9A | 1.12 | 0.57 | 
87 | TGA G17T T59C | 9.54 | 0.93 | 
88 | GGA C55T A58T | 1.3 | 0.2 | 
89 | GAA T8G T53G T54A C55A T59C | 4.45 | 0.75 | 
90 | GAG A20C T53A | 3.68 | 0.4 | 
91 | GAA T8C A14T T19A | 3.13 | 0.25 | 
92 | TAG A20T | 3.13 | 0.25 | 

Row | Variant | tRNA Pol-III promoter activity (log2) [1] | tRNA 3' processing efficiency [2] | tRNA 5' processing efficiency [3]
93 | GAG A14G T19A | 4.4 | 0.36 | 
94 | CAC A14T A20G | 6.03 | 0.25 | 
95 | GAA A58G T59A | 3.23 | 0.18 | 
96 | TAT A14C | 2.84 | 0.57 | 
97 | GAA A14C T53A | 1.5 | 0.31 | 
98 | GAA C55G | -1.25 | 0.5 | 0.15
99 | TAA T8G G9C | 4.1 | 0.22 | 
100 | GAC A14T | 1.09 | 0.35 | 0.25
101 | GCA A14T T19A | 4.25 | 0.2 | 
102 | GAA G17T A20T T59C | 5.86 | 0.38 | 
103 | AAA A58T T59A | 4.65 | 0.41 | 
104 | GAC G9T T53C A58T | 3.45 | 0.5 | 
105 | GTA G17T A58T | 2.81 | 0.49 | 
106 | CAT A20G | 3.93 | 0.25 | 
107 | GAG A58T | 1.54 | 0.3 | 
108 | CAA A14C G15C | 3.81 | 0.33 | 
109 | GTA G15T G18C T19C A58T | 4.03 | 0.33 | 
110 | GTA G9T A14C G17A A20C | 5.67 | 0.3 | 
111 | GTA G15T G18A A58T | 5.74 | 0.57 | 
112 | GGT T19A C55A | 5.25 | 0.4 | 

Just tRNA Pol-III promoter activity (log2) [1], for some of the entries so far:
Row | Variant | tRNA Pol-III promoter activity (log2) [1]
95 | GAA A58G T59A | 3.23
96 | TAT A14C | 2.84
97 | GAA A14C T53A | 1.5
